Values quoted from earlier work, collected in patent publication US12410178B2, “Small cationic ortho-5,15-di-heteroaryl-porphyrin derivatives and their applications in photoinactivation of microorganisms” (UNIVERSIDADE DE COIMBRA, priority 2019, dated 2025).
At least one compound was matched to its structure with a doubt left.

Settings: in toluene; cited from earlier work

Compound: C1=Cc2nc1c(-c1ccccc1)c1nc(c(-c3ccccc3)c3ccc([nH]3)c(-c3ccccc3)c3ccc([nH]3)c2-c2ccccc2)C=C1 [Tetraphenylporphyrin]
- ΦF of the standard: 0.11
